Drawing on patent publication US20240360175A1 (Centessa Pharmaceuticals (UK) Limited, priority 2021, published 2024), this text covers isolated mass and isolated yield for 1 substance.

The data set is described as follows: general procedure: Fmoc solid-phase peptide synthesis; Fmoc Rink amide AM resin. The settings on record: whole synthesis, scale 0.30 mmol, AcOH salt.

In the case of “H2N-(PEG)6-N-Phenethyl-Gly-Asn-Hyp(4-OH)-Ala-Phg-Gly-Ile-Leu-Thr-2-AOC-NH2”, the isolated mass was 51.2 mg and the isolated yield is recorded as 10.4%.
